Measured values taken from doi:10.1101/2023.02.10.527983.
These are yes or no findings as the source states them, for the method shown. Some binding calls cover weakened binding; strength is not graded here.

Sequences of proteins named here, by UniProt entry; tags and fusion partners are left off.
UniProt P35222: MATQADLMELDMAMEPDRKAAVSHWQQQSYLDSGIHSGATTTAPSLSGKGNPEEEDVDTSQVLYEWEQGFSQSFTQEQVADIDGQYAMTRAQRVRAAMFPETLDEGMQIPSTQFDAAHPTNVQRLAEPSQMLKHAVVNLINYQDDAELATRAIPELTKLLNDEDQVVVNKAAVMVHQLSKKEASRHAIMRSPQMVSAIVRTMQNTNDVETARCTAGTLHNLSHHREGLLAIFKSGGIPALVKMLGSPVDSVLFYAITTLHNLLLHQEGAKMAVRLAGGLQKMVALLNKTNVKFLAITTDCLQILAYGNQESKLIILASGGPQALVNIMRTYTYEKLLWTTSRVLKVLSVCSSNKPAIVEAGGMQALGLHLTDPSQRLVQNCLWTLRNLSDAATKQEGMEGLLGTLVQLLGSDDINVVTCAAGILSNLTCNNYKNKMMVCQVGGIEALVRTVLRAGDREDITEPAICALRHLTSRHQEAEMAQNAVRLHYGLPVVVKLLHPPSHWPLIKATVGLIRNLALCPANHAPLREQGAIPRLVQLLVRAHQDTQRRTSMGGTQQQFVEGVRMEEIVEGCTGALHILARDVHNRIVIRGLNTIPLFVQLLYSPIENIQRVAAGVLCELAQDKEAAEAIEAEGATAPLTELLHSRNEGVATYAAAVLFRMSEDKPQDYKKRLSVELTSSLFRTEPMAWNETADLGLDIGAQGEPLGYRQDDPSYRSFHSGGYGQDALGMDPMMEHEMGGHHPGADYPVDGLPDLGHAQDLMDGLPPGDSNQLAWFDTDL

Target: T1, USP10 residues 7-21 peptide (USP10^7-21)
T1 sequence (peptide): QYIFGDFSPDEFNQF
Assay: peptide or protein array

binding: binds
Substance: recombinant β-Catenin (from UniProt P35222 1-781)
